assay: general procedure: Fmoc solid-phase peptide synthesis; Rink Amide ChemMatrix resin (loading 0.44–0.48 mmol/g); HCTU/DIEA; settings: whole synthesis, analytical UPLC-PDA; confirmed by UHPLC-Q-ToF MS, scale of the general procedure 0.165 mmol

In order of rising “final purity (method not given)” value:
1. GKKWWGWKAK-NH2  95%
2. GRRPLLLRAR-NH2  97%
3. GKKPGGWKAK-NH2  97%
4. GKKPWGWKAK-NH2  98%
5. GKKPGWWKAK-NH2  98%
6. GKKWGGWKAK-NH2  98%
7. GKKWGWWKAK-NH2  98%
8. GKKPWWWKAK-NH2  99%
9. GRRWWWWRAR-NH2  100%
10. GKKWWWWKAK-NH2  100%
11. GRRPWWWRAR-NH2  100%

From paper PMC7432809 (International Journal of Molecular Sciences, 2020)
